Data published in patent US20070154901A1 (ANAPHORE, published 2007).
Results are given in words; binding and its absence hold for the method and conditions named. Some binding calls cover weakened binding; strength is not graded here.

The chains behind the UniProt entries cited, without tags or fusion partners. Residues count along the entry.
UniProt P00747, residues 377-454: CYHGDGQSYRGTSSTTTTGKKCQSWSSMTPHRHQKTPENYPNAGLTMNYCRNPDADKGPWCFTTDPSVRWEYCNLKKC

Target: plasminogen kringle 4 (UniProt P00747)
Test: binding analysis, method not described, data not shown

binding: binds
B1: recombinant full length tetranectin (TN123) (other)
chain: GEPPTQKPKKIVNAKKDVVNTKMFEELKSRLDTLAQEVALLKEQQALQTVCLKGTKVHMKCFLAFTQTKTFHEASEDCISRGGTLSTPQTGSENDALYEYLRQSVGNEAEIWLGLNDMAAEGTWVDMTGARIAYKNWETEITAQPDGGKTENCAVLSGAANGKWFDKRCRDQLPYICQFGIV
notes: Found as a trimer in solution; also called rTN123
